Laboratory results as given in article PMC9271913.
No constants are given. Whether binding was seen depends on the method and setting. Binding seen in cells or lysates may run through a third protein. These calls come from enrichment with a bait or labelling near it, and not all partners need be listed.

T1: Retention in endoplasmic reticulum 1 (Rer1), mouse (mouse (endogenous in brain)) (UniProt Q9CQU3)
T1 sequence: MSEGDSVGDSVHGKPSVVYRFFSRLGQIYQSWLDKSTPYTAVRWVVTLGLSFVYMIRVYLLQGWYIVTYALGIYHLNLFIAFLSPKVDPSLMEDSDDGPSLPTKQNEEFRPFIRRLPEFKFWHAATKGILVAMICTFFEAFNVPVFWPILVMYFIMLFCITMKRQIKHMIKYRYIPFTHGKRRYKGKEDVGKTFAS


Target: T1, Retention in endoplasmic reticulum 1 (Rer1), mouse (mouse (endogenous in brain))
Test: affinity purification with mass spectrometry; anti-RER1 immunoprecipitation of hippocampus lysates (gentle RIPA lysis buffer) of PTZ-induced Nedd4-2+/- and wild-type mice, LC-MS/MS; IgG-precipitated proteins subtracted; proteins present in all four replicates of a group defined as positive

Binder	binding
Epidermal growth factor receptor substrate 15-like 1 (protein, UniProt Q60902 1-907) MAAPLVPLSQQIPGGNPLYESYYKQVDPAYTGRVGASEAALFLKKSGLSDIILGKIWDLADPEGKGFLDKQGFYVALRLVACAQSGHEVTLSSLSLTMPPPKFHDTSSPLMATQSSAETHWAVRVEEKAKFDGIFESLLPVNGLLSGDKVKPVLMNSKLPLDVLGRVWDLSDIDKDGHLDRDEFAVAMHLVYRALEKEPVPSILPPPLIPPSKRKKTVFAGAVPVLPASPPPKDSLRSTPSHGSVSSLNSTGSLSPKHSVKQPPVAWVVPVADKMRFDEIFLKTDLDLDGYVSGQEVKEIFMHSGLTQNLLAHIWALADTRQTGKLSKEQFALAMYFIQQKVSKGIDPPQVLSPDMVPPSERGTPIPDSSSTLASGEFTGVKELDDISQEIAQLQREKYSLEQDIREKEEAIRQKTSEVQELQNDLDRETSSLQELEAQKQDAQDRLDEMDQQKAKLRDMLSDVRQKCQDETQTISSLKTQIQSQESDLKSQEDDLNRAKSELNRLQQEETQLEQSIQAGRAQLETILRSLKCTQDDINQARSKLSQLQESHLEAHRSLEQYDQVPDGVSGTSLPDLATLNEGILLAERGGFGAMDDPFKNKALLFSNNSQELHPDPFQAEDPFKSDPFKGADPFKGDPFQSDPFSEQQTAATDPFGGDPFKESDPFHSSSSDDFFKKQTKNDPFTSDPFTKNPSLPSKLDPFESSDPFSSSSISSKGSDPFGTLDPFGSSSFSSAEGFADFSQMSKPPPSGPFSSSLGGTGFSDDPFKSKQDTPALPPKKPAPPRPKPPSGQSTPVSQLGSSDFPESPDPFQPLGADSGDPFQNKKGFGDPFSGKDPFAPSSSAKPPKTSSSGFADFTSFGNEEQQLAWAKRESEKAEQERLARLRRQEQEDLELAIALSKADMPA	binds
Ras GTPase-activating protein-binding protein 2 isoform X1 (protein, UniProt P97379 1-482) MVMEKPSPLLVGREFVRQYYTLLNKAPEYLHRFYGRNSSYVHGGVDASGKPQEAVYGQNDIHHKVLSLNFSECHTKIRHVDAHATLSDGVVVQVMGLLSNSGQPERKFMQTFVLAPEGSVPNKFYVHNDMFRYEDEVFGDSEPELDEESEDEVEEEQEDRQPSPEPVQENANSAYYDAHPVTNGIEEPLEESSHEPEPEPESETKTEELKPQVEEKHLEELEEKSATPPPAEPASLPQEPPKAFSWASVTSKNLPPSGTVSSSGIPPHVKAPVSQPRVDAKPEVQSQPPRVREQRPRERPGFPPRGPRPGRGDMEQNDSDNRRIIRYPDSHQLFVGNLPHDIDENELKEFFMSFGNVVELRINTKGVGGKLPNFGFVVFDDSEPVQRILIAKPIMFRGEVRLNVEEKKTRAARERETRGGGDDRRDIRRNDRGPGGPRGIVGGGMMRDRDGRGPPPRGGMTQKLGSGRGTGQMEGRFTGQRR	binds
ARF GTPase-activating protein GIT1 isoform X2 (protein, UniProt Q68FF6 1-770) MSRKGPRAEVCADCSAPDPGWASISRGVLVCDECCSVHRSLGRHISIVKHLRHSAWPPTLLQMVHTLASNGANSIWEHSLLDPAQVQSGRRKANPQDKVHPIKSEFIRAKYQMLAFVHKLPCRDDDGVTAKDLSKQLHSSVRTGNLETCLRLLSLGAQANFFHPEKGTTPLHVAAKAGQTLQAELLVVYGADPGSPDVNGRTPIDYARQAGHHELAERLVECQYELTDRLAFYLCGRKPDHKNGHYIIPQMADRSRQKCMSQSLDLSELAKAAKKKLQALSNRLFEELAMDVYDEVDRRENDAVWLATQNHSTLVTERSAVPFLPVNPEYSATRNQGRQKLARFNAREFATLIIDILSEAKRRQQGKSLSSPTDNLELSARSQSELDDQHDYDSVASDEDTDQEPLPSAGATRNNRARSMDSSDLSDGAVTLQEYLELKKALATSEAKVQQLMKVNSSLSDELRRLQREIHKLQAENLQLRQPPGPVPPPSLPSERAEHTLMGPGGSTHRRDRQAFSMYEPGSALKPFGGTPGDELATRLQPFHSTELEDDAIYSVHVPAGLYRIRKGVSASSVPFTPSSPLLSCSQEGSRHASKLSRHGSGADSDYENTQSGDPLLGLEGKRFLELSKEDELHPELESLDGDLDPGLPSTEDVILKTEQVTKNIQELLRAAQEFKHDSFVPCSEKIHLAVTEMASLFPKRPALEPVRSSLRLLNASAYRLQSECRKTVPPEPGAPVDFQLLTQQVIQCAYDIAKAAKQLVTITTREKKQ	binds
Leukotriene A(4) hydrolase (protein, UniProt P24527 1-611) MPEVADTCSLASPASVCRTQHLHLRCSVDFARRTLTGTAALTVQSQEENLRSLTLDTKDLTIEKVVINGQEVKYTLGESQGYKGSPMEISLPIALSKNQEIVIEISFETSPKSSALQWLTPEQTSGKQHPYLFSQCQAIHCRAILPCQDTPSVKLTYTAEVSVPKELVALMSAIRDGEAPDPEDPSRKIYRFNQRVPIPCYLIALVVGALESRQIGPRTLVWSEKEQVEKSANEFSETESMLKIAEDLGGPYVWGQYDLLVLPPSFPYGGMENPCLTFVTPTLLAGDKSLSNVIAHEISHSWTGNLVTNKTWDHFWLNEGHTVYLERHICGRLFGEKFRHFHALGGWGELQNTIKTFGESHPFTKLVVDLKDVDPDVAYSSIPYEKGFALLFYLEQLLGGPEVFLGFLKAYVKKFSYQSVTTDDWKSFLYSHFKDKVDLLNQVDWNTWLYAPGLPPVKPNYDVTLTNACIALSQRWVTAKEEDLSSFSIADLKDLSSHQLNEFLAQVLQKAPLPLGHIKRMQEVYNFNAINNSEIRFRWLRLCIQSKWEEAIPLALKMATEQGRMKFTRPLFKDLAAFDKSHDQAVHTYQEHKASMHPVTAMLVGRDLKVD	binds
Nebulette isoform X2 (protein, UniProt Q0II04 1-452) MKVPVSGDVKEETEEENVEQEENQEAKVSLKPVIEDLSMELARKCTELISDIHYKEEYKKSKDKCTFVTDTPMLNHVKNIGAFISEAKYKGTIKADLSNCLYKDMPATIDSVFAREVSQLQSEVAYKQKHEAEKGFSDYTHMKEPPEVRRAMEVNRHQSNISYRKDMQGTHTYTAELDRPDIKKATQISKIISDAEYKKGQGIVNKEPSVIGRPDFEHAVGASKLSSQVKYKEKFDNEMKEKSHHYNPLGSAFFRQHQFAAVLASDWEYKRDFEENKGLYHFDAEAPEHLHHKGNATLQSQVKYREEYEKNKGKSMLEFVETPSYQSSKEAQKMQSEKVYKEDFEKEIKGRSSLDLDKTPAFLHVKHITNLMREKEYKKDLENEIKGKGMELSSEVLDIQRAKRASEMASEKDYKRDLETEIKGKGMQVSTDTLDVQRAKRASEMASQVRMV	binds
O-GlcNAc transferase subunit p110 (protein, UniProt Q8CGY8 1-1046) MASSVGNVADSTEPTKRMLSFQGLAELAHREYQAGDFEAAERHCMQLWRQEPDNTGVLLLLSSIHFQCRRLDRSAHFSTLAIKQNPLLAEAYSNLGNVYKERGQLQEAIEHYRHALRLKPDFIDGYINLAAALVAAGDMEGAVQAYVSALQYNPDLYCVRSDLGNLLKALGRLEEAKACYLKAIETQPNFAVAWSNLGCVFNAQGEIWLAIHHFEKAVTLDPNFLDAYINLGNVLKEARIFDRAVAAYLRALSLSPNHAVVHGNLACVYYEQGLIDLAIDTYRRAIELQPHFPDAYCNLANALKEKGSVAEAEDCYNTALRLCPTHADSLNNLANIKREQGNIEEAVRLYRKALEVFPEFAAAHSNLASVLQQQGKLQEALMHYKEAIRISPTFADAYSNMGNTLKEMQDVQGALQCYTRAIQINPAFADAHSNLASIHKDSGNIPEAIASYRTALKLKPDFPDAYCNLAHCLQIVCDWTDYDERMKKLVSIVAEQLEKNRLPSVHPHHSMLYPLSHGFRKAIAERHGNLCLDKINVLHKPPYEHPKDLKLSDGRLRVGYVSSDFGNHPTSHLMQSIPGMHNPDKFEVFCYALSPDDGTNFRVKVMAEANHFIDLSQIPCNGKAADRIHQDGIHILVNMNGYTKGARNELFALRPAPIQAMWLGYPGTSGALFMDYIITDQETSPAEVAEQYSEKLAYMPHTFFIGDHANMFPHLKKKAVIDFKSNGHIYDNRIVLNGIDLKAFLDSLPDVKIVKMKCPDGGDNPDSSNTALNMPVIPMNTIAEAVIEMINRGQIQITINGFSISNGLATTQINNKAATGEEVPRTIIVTTRSQYGLPEDAIVYCNFNQLYKIDPSTLQMWANILKRVPNSVLWLLRFPAVGEPNIQQYAQNMGLPQNRIIFSPVAPKEEHVRRGQLADVCLDTPLCNGHTTGMDVLWAGTPMVTMPGETLASRVAASQLTCLGCLELIAKSRQEYEDIAVKLGTDLEYLKKIRGKVWKQRISSPLFNTKQYTMELERLYLQMWEHYAAGNKPDHMIKPVEVTESA	binds
